Only a part is listed here, and it is no random draw. At the low end of the ranking the order means little.

This note sets out measurements from paper PMC7862700.

The target in the experiment is SPI1 (UniProt P17947). As to the kind of experiment: DAPPL (digital affinity profiling via proximity ligation, sequencing). As to conditions: 10 mM Tris-HCl pH 7.5, 50 mM NaCl, 1 mM DTT, 4% glycerol, room temperature, 30 min; GST-TFs on glutathione beads, 16-mer random dsDNA library, 0.1% …; high values mean tight binding; double strand, one strand shown; scale: fold enrichment (6-mer frequency, TF over GST control).
Sequence CTCACC returned a binding signal of 1.24.
In the case of AATCCA it was 0.992.
As for TCGTTA, the binding signal was 0.941.
For CACTCA the value was 1.08; for CTCACA, 1.27; for CGGCTG, 0.932.
The sequence CGACAG displayed a binding signal of 0.901.
For GTACAA the value was 1.06.
Turning to GCCATC, the binding signal turned out to be 0.935.
TAGATC registered a binding signal of 0.942.
In the case of ATAGCC it was 0.991; in that of TTAGTC, 0.798.
Sequence ATAGAC had a binding signal of 1.02.
In turn, CATGCG had a binding signal of 0.978.
For ACAAGA the value was 0.893; for CCGCGG, 0.917.
Consider TGCCTT, for which the binding signal amounted to 1.44.
Take TAAAGC: the binding signal was determined as 1.05.
Turning to CGCAAT, the binding signal was 0.969.
For TTCCCA the value was 1.28.
In the case of GCGACC it was 1.07.
ACCACA registered a binding signal of 0.991.
In the case of AGAATA it was 1.
In the case of CCCTTC it was 1.52; in that of CCAAAT, 1.09.
Sequence ATCTTA registered a binding signal of 1.01.
In the case of GCGACA it was 0.975; in that of ACCGGT, 0.917; in that of GATGCA, 1.06.
GTAGCG had a binding signal of 0.886.
In the case of ACCCGT, the binding signal was determined as 0.874.
The sequence CTCGCA returned a binding signal of 1.27.
For CGGTAT the value was 0.966.
Sequence GCACTC registered a binding signal of 1.35.
For TCGAGA the value was 0.593; for CATATG, 0.935; for CTTCCC, 3.35.
In the case of CGCGTT, the binding signal stood at 0.967.
